Here are results for two compounds from publication PMC7764601 (Molecules, 2020).

Structures are written as SMILES.

The data set has as its system mice. Description: Spontaneous locomotor activity in mice (photoresistor actometers). In kind it is in vivo. On the procedure: The experiments were carried out on male albino Swiss mice (body weight 18–26 g). All of the animals were housed at constant humidity (60%) and temperature (25 °C) and kept on a 12 h light/dark cycle. Animals were fed a standard pellet diet with free access to tap water. All procedures were conducted according to Animal Care and Use Committee guidelines, and approved by the Ethical Committee of Jagiellonian University, Kraków.
Control and experimental groups consisted of 6–8 animals each. The investigated compounds were administered intraperitoneally as a suspension in 0.5% methylcellulose in a constant volume of 10 mL/kg.
Spontaneous locomotor activity in mice was measured in circular photoresistoractometers (32 cm in diameter). […] Thirty minutes after the injection of the investigated compounds, mice were placed in the actometers for 30 min. Each crossing of the light beam was recorded automatically. The amount of impulses was noted after 30 min.

On to `COc1ccccc1N1CCN(CCN2C(=O)c3cc(C)nc(OC)c3C2=O)CC1` [Compound 11], for which the “ED50 locomotor activity test relative to ED50 writhing test” value worked out at 6 fold.

Consider `COc1nc(C)cc2c1C(=O)N(CCN1CCN(c3ccccc3)CC1)C2=O` [Compound 9], for which the “ED50 locomotor activity test relative to ED50 writhing test” value stood at 5 fold.
